Measurements taken from PMC5441899.
These are yes or no findings as the source states them, for the method shown. Binding seen in cells or lysates may run through a third protein. Some results given as binding are weak or reduced against the parent protein; the word gives no strength. Tags and fused reporters may be left off the sequences shown.

T1: bHLH115-cYFP (full-length bHLH115 fused with the C-terminal of YFP) (Arabidopsis thaliana) (UniProt Q9C682)
T1 sequence: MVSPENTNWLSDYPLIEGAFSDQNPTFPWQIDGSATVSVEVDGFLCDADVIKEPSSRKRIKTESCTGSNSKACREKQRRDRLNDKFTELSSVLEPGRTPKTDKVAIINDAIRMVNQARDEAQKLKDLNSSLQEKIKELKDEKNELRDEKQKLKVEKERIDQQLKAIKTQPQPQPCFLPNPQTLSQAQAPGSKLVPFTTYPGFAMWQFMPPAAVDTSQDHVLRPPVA

B1: bHLH34-nYFP (full-length bHLH34 fused with the N-terminal of YFP) (protein, UniProt Q9LTC7 1-320)
chain: MYPSIEDDDDLLAALCFDQSNGVEDPYGYMQTNEDNIFQDFGSCGVNLMQPQQEQFDSFNGNLEQVCSSFRGGNNGVVYSSSIGSAQLDLAASFSGVLQQETHQVCGFRGQNDDSAVPHLQQQQGQVFSGVVEINSSSSVGAVKEEFEEECSGKRRRTGSCSKPGTKACREKLRREKLNDKFMDLSSVLEPGRTPKTDKSAILDDAIRVVNQLRGEAHELQETNQKLLEEIKSLKADKNELREEKLVLKAEKEKMEQQLKSMVVPSPGFMPSQHPAAFHSHKMAVAYPYGYYPPNMPMWSPLPPADRDTSRDLKNLPPVA
B2: bHLH104-nYFP (full-length bHLH104 fused with the N-terminal of YFP) (protein, UniProt Q8L467 1-283)
chain: MYPSLDDDFVSDLFCFDQSNGAELDDYTQFGVNLQTDQEDTFPDFVSYGVNLQQEPDEVFSIGASQLDLSSYNGVLSLEPEQVGQQDCEVVQEEEVEINSGSSGGAVKEEQEHLDDDCSRKRARTGSCSRGGGTKACRERLRREKLNERFMDLSSVLEPGRTPKTDKPAILDDAIRILNQLRDEALKLEETNQKLLEEIKSLKAEKNELREEKLVLKADKEKTEQQLKSMTAPSSGFIPHIPAAFNHNKMAVYPSYGYMPMWHYMPQSVRDTSRDQELRPPAA
B3: bHLH105-nYFP (full-length bHLH105 fused with the N-terminal of YFP) (protein, UniProt Q9FH37 1-234)
chain: MVSPENANWICDLIDADYGSFTIQGPGFSWPVQQPIGVSSNSSAGVDGSAGNSEASKEPGSKKRGRCESSSATSSKACREKQRRDRLNDKFMELGAILEPGNPPKTDKAAILVDAVRMVTQLRGEAQKLKDSNSSLQDKIKELKTEKNELRDEKQRLKTEKEKLEQQLKAMNAPQPSFFPAPPMMPTAFASAQGQAPGNKMVPIISYPGVAMWQFMPPASVDTSQDHVLRPPVA
B4: bHLH115-nYFP (full-length bHLH115 fused with the N-terminal of YFP) (protein, UniProt Q9C682 1-226)
chain: T1 sequence
B5: BTS-nYFP (BRUTUS fused with the N-terminal of YFP) (protein, UniProt Q8LPQ5 1-1254)
chain: MATPLPDFETARGGGAVASSSTTVLPSSVSSSSSSSRPLPVANSFSDDAEEISPILIFLFFHKAVCSELEALHRLALEFATGHHVDLRLLRERYRFLRSIYKHHCNAEDEVIFSALDIRVKNVAQTYSLEHKGESNLFDHLFELLNSATETDESYRRELARSTGALQTSVSQHLAKEQKQVFPLLIEKFKYEEQAYIVWRFLCSIPVNMLAVFLPWISSSISVDESKEMQTCLKKIVPGEKLLQQVIFTWLGGKSNTVASCRIEDSMFQCCLDSSSSMLPCKASREQCACEGSKIGKRKYPELTNFGSSDTLHPVDEIKLWHKSINKEMKEIADEARKIQLSGDFSDLSAFDERLQYIAEVCIFHSLAEDKIIFPAVDGEFSFSEEHDEEENQFNEFRCLIENIKSAGASSTSAAEFYTKLCSHADQIMETIQRHFHNEEIQVLPLARKNFSFKRQQELLYQSLCIMPLRLIERVLPWLTASLTEDEAKNFLKNLQAGAPKSDVALVTLFSGWACKGRKAGECLSPNGNGLCPVKTLSNIKEVNLQSCNACASVPCTSRSTKSCCQHQDKRPAKRTAVLSCEKKTTPHSTEVANGCKPSGNGRSCCVPDLGVNNNCLELGSLPAAKAMRSSSLNSAAPALNSSLFIWEMDSNSFGTGHAERPVATIFKFHKAISKDLEFLDVESGKLIDCDGTFIRQFIGRFHLLWGFYKAHSNAEDDILFPALESKETLHNVSHSYTLDHKQEEKLFGDIYSVLTELSILHEKLQSDSMMEDIAQTDTVRTDIDNGDCNKKYNELATKLQGMCKSIKITLDQHIFLEELELWPLFDKHFSIQEQDKIVGRIIGTTGAEVLQSMLPWVTSALSEDEQNRMMDTWKQATKNTMFDEWLNECWKGSPDSSSTETSKPSPQKDNDHQEILDQSGELFKPGWKDIFRMNQNELEAEIRKVYQDSTLDPRRKDYLVQNWRTSRWIAAQQKLPKEAETAVNGDVELGCSPSFRDPEKQIYGCEHYKRNCKLRAACCDQLFTCRFCHDKVSDHSMDRKLVTEMLCMRCLKVQPVGPICTTPSCDGFPMAKHYCSICKLFDDERAVYHCPFCNLCRVGEGLGIDFFHCMTCNCCLGMKLVNHKCLEKSLETNCPICCEFLFTSSEAVRALPCGHYMHSACFQAYTCSHYTCPICGKSLGDMAVYFGMLDALLAAEELPEEYKNRCQDILCNDCERKGTTRFHWLYHKCGSCGSYNTRVIKSETIPPDCSTSS

target: T1, bHLH115-cYFP (full-length bHLH115 fused with the C-terminal of YFP) (Arabidopsis thaliana); assay: split reporter; BiFC: cYFP and nYFP fusions transiently co-expressed in N. benthamiana leaf cells by Agrobacterium infiltration; YFP and DAPI fluorescence observed by confocal microscopy

binding, binds:
B1
B2
B3
B4
B5
